Data source: PubChem BioAssay AID1224831 (NIAID, 2016)
The deposit covers about 3,500 reagents; this is an unselected part. Over the whole deposit, 731 (21%) were called active. 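Active means either lowered or raised reporter signal; the gene-median score did not drive the per-siRNA calls.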 Entries without a mark were called inactive. Reagents against one gene are numbered here. Reagent sequences are not shown.

Aim: 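Retesting screen hits on the TLR4-driven TNF response with six separate siRNAs each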 (follow-up of hits)
Cell system: human THP-1 B5 monocytic leukaemia cells carrying a TNF promoter luciferase reporter, made macrophage-like with PMA
Reagent: single siRNA against human genes, 50 nM
Timing: about 68 h of knock-down, then 4 h LPS
Conditions: LPS (Salmonella minnesota, TLR-grade) at 10 ng/ml for 4 h; PMA 5 ng/ml present during knock-down
Read-out: 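Firefly to renilla luciferase ratio of a TNF promoter reporter after 4 h LPS, scaled to plate median, turned into robust z-score, averaged over replicates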
Reading the numbers: TNF reporter z-score: higher = stronger LPS-induced TNF reporter signal; z-score, median over gene's siRNAs: higher = stronger TNF reporter signal across the gene's siRNAs
Hit rule: 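Active when the replicate mean z-score is about -1 or lower, or about 1.5 or higher; lowered and raised TNF reporter signal both count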
Calls: active = changed TNF reporter (either direction); inactive = little change

Which result is listed for SNRNP70 (small nuclear ribonucleoprotein U1 subunit 70) #1?
TNF reporter z-score, replicate mean: -0.62; z-score, median over gene's siRNAs: 0.345

What is on record for SNRNP70 (small nuclear ribonucleoprotein U1 subunit 70) #2?
TNF reporter z-score, replicate mean: 0.18; z-score, median over gene's siRNAs: 0.345

What is on record for SNRNP70 (small nuclear ribonucleoprotein U1 subunit 70) #3?
TNF reporter z-score, replicate mean: 0.51; z-score, median over gene's siRNAs: 0.345

How did the screen score SNRNP70 (small nuclear ribonucleoprotein U1 subunit 70) #4?
TNF reporter z-score, replicate mean: 0.97; z-score, median over gene's siRNAs: 0.345

What did the screen give for SNRNP70 (small nuclear ribonucleoprotein U1 subunit 70) #5?
TNF reporter z-score, replicate mean: -0.54; z-score, median over gene's siRNAs: 0.345

Which result is listed for SNRNP70 (small nuclear ribonucleoprotein U1 subunit 70) #6?
TNF reporter z-score, replicate mean: 0.58; z-score, median over gene's siRNAs: 0.345

With PLPP1 (phospholipid phosphatase 1) #1, what was measured?
TNF reporter z-score, replicate mean: 0.43; z-score, median over gene's siRNAs: 0.21

How did the screen score PLPP1 (phospholipid phosphatase 1) #2?
TNF reporter z-score, replicate mean: -0.19; z-score, median over gene's siRNAs: 0.21

For PLPP1 (phospholipid phosphatase 1) #3, how do the results read?
TNF reporter z-score, replicate mean: 0.52; z-score, median over gene's siRNAs: 0.21

What did the screen give for PLPP1 (phospholipid phosphatase 1) #4?
TNF reporter z-score, replicate mean: -0.5; z-score, median over gene's siRNAs: 0.21

What is on record for PLPP1 (phospholipid phosphatase 1) #5?
TNF reporter z-score, replicate mean: 0.03; z-score, median over gene's siRNAs: 0.21

For PLPP1 (phospholipid phosphatase 1) #6, how do the results read?
TNF reporter z-score, replicate mean: 0.39; z-score, median over gene's siRNAs: 0.21

What did the screen give for OR52A5 (olfactory receptor family 52 subfamily A member 5) #1?
TNF reporter z-score, replicate mean: 0.79; z-score, median over gene's siRNAs: 0.43

What did the screen give for OR52A5 (olfactory receptor family 52 subfamily A member 5) #2?
TNF reporter z-score, replicate mean: 0.06; z-score, median over gene's siRNAs: 0.43

How did the screen score OR52A5 (olfactory receptor family 52 subfamily A member 5) #3?
TNF reporter z-score, replicate mean: 0.07; z-score, median over gene's siRNAs: 0.43

For OR52A5 (olfactory receptor family 52 subfamily A member 5) #4, how do the results read?
TNF reporter z-score, replicate mean: 1.42; z-score, median over gene's siRNAs: 0.43

For OR52A5 (olfactory receptor family 52 subfamily A member 5) #5, how do the results read?
TNF reporter z-score, replicate mean: 0.01; z-score, median over gene's siRNAs: 0.43

For OR52A5 (olfactory receptor family 52 subfamily A member 5) #6, how do the results read?
TNF reporter z-score, replicate mean: 1.11; z-score, median over gene's siRNAs: 0.43

For RPS6KA4 (ribosomal protein S6 kinase A4) #1, how do the results read?
TNF reporter z-score, replicate mean: -1.34 (active); z-score, median over gene's siRNAs: -0.55

What did the screen give for RPS6KA4 (ribosomal protein S6 kinase A4) #2?
TNF reporter z-score, replicate mean: 0.36; z-score, median over gene's siRNAs: -0.55

For RPS6KA4 (ribosomal protein S6 kinase A4) #3, what was measured?
TNF reporter z-score, replicate mean: -1.41 (active); z-score, median over gene's siRNAs: -0.55

What is on record for RPS6KA4 (ribosomal protein S6 kinase A4) #4?
TNF reporter z-score, replicate mean: -0.38; z-score, median over gene's siRNAs: -0.55

What is on record for RPS6KA4 (ribosomal protein S6 kinase A4) #5?
TNF reporter z-score, replicate mean: 0.28; z-score, median over gene's siRNAs: -0.55

How did the screen score RPS6KA4 (ribosomal protein S6 kinase A4) #6?
TNF reporter z-score, replicate mean: -0.72; z-score, median over gene's siRNAs: -0.55

With ALG10B (ALG10 alpha-1,2-glucosyltransferase B) #1, what does the deposit list?
TNF reporter z-score, replicate mean: 1.08; z-score, median over gene's siRNAs: 0.255

For ALG10B (ALG10 alpha-1,2-glucosyltransferase B) #2, how do the results read?
TNF reporter z-score, replicate mean: -0.42; z-score, median over gene's siRNAs: 0.255

Which result is listed for ALG10B (ALG10 alpha-1,2-glucosyltransferase B) #3?
TNF reporter z-score, replicate mean: 0.89; z-score, median over gene's siRNAs: 0.255

For ALG10B (ALG10 alpha-1,2-glucosyltransferase B) #4, what does the deposit list?
TNF reporter z-score, replicate mean: 0.13; z-score, median over gene's siRNAs: 0.255

How did the screen score ALG10B (ALG10 alpha-1,2-glucosyltransferase B) #5?
TNF reporter z-score, replicate mean: -0.16; z-score, median over gene's siRNAs: 0.255

What is on record for ALG10B (ALG10 alpha-1,2-glucosyltransferase B) #6?
TNF reporter z-score, replicate mean: 0.38; z-score, median over gene's siRNAs: 0.255

Part of the list above, showing only “TNF reporter z-score, replicate mean”.
PLPP1 (phospholipid phosphatase 1) #4	-0.5
PLPP1 (phospholipid phosphatase 1) #5	0.03
